Values of other authors as cited in patent US8679539B2, “Drug-loaded poly (alkyl-cyanoacrylate) nanoparticles and process for the preparation thereof” (Tong Shen Enterprise Co., Ltd., priority 2007, dated 2014).

Water solubility: less than 3 ng/ml
Compound: CC(=O)O[C@H]1C(=O)[C@@]2(C)[C@H]([C@H](OC(=O)c3ccccc3)[C@]3(O)C[C@H](OC(=O)[C@H](O)[C@@H](NC(=O)c4ccccc4)c4ccccc4)C(C)=C1C3(C)C)[C@]1(OC(C)=O)CO[C@@H]1C[C@@H]2O [Paclitaxel]
